Data from patent US11261187B2, “Compounds and methods for targeting HSP90” (Duke University, priority 2016, dated 2022).
At least one structure is not confirmed: it was looked up by name or label, or the drawing left a doubt.

Assays:
MDA-MB-468 flank tumors = assay: Whole mouse 3D cryo-imaging of probe biodistribution, MDA-MB-468 flank xenograft; assay type: in vivo; details: fluorescence overlaid on bright field image
Protocol: All protocols involving the use of mice were approved beforehand by the IACUC at Duke University and were strictly adhered to throughout the studies. A wild-type 3-month-old male SCID mouse with a right flank xenograft with MDA-MB-468 cells was injected with 25 nmol 100 through the tail vein. Six hours later, the mouse was euthanized, prepared according to the instructions from BioInVision, Inc. (Cleveland, Ohio, USA) and shipped for Cryo-Imaging and reconstruction. An EGFP/mCherry dual band filter set was used for imaging (#59022; Chroma Technology Corporation, Bellows Falls, Vt., USA). […]
Whereas fluorophore-tethered probes are useful for detecting and following uptake of tumors on the skin surface in live animals, even with the most sensitive of far red or nIR detectors, due to light scattering, detection of emitted fluorescent light is limited to a depth of few mm of tissue. […] Each slice was imaged for fluorescence with an mCherry band filter (excitation 550-590 nm, emission 600-670 nm) as well as bright field (all slice image data can be down loaded at https://goo.gl/Z30dXJ). The images were reconstructed to create a 3D fluorescence and bright field images of the entire mouse anatomy (FIG. 4a). […] The limits of detection of 100 by fluorescence are estimated to be at <1-2 μmol. […]

eHsp90 = assay: Live imaging and tracking of puncta (lattice light sheet microscope); assay type: cell-based; details: 10 μM 100 versus 101 or 100 with HS-10
Protocol: Live imaging was also performed on cells treated with 100 alone, 101, or 100 and HS-10, and spots were tracked over time to investigate any differences in puncta movement and size. […] Puncta detected with 100 were competed with HS-10 (FIG. 3d).

[1] = test system: 67NR, 168FARN, 66c14, 4T07, and 4T1 cells; assay: 100 internalization assay in the 4T1 isogenic cell model; assay type: cell-based; details: 25 μM, 45 min; 4T1 cells versus the less metastatic lines
MCF10A cells = assay: 100 internalization in MCF10A cells with doxycycline-inducible HER2 constructs; assay type: cell-based, human
[2] = Absorbance and emission maxima of near IR fluorescent probes (Table 1); assay type: physicochemical
MDA-MB-468 cells [3] = assay: Confocal imaging of eHsp90 puncta in probe-treated tumor cells; assay type: cell-based
Protocol: (§1) Cells were plated on uncoated 18-mm round coverslips in 12 well plates at 150,000 cells/well and were allowed to adhere overnight. 100, in a stock solution in DMSO, was diluted in serum-free/phenol red-free DMEM. After drug incubation, the cells were washed twice with ice-cold PBS, fixed with 1% PFA in PBS for 10 min, and stained with 5 μg/mL wheat germ agglutinin-488 (WGA-488, Invitrogen, Waltham, Mass.) and either Hoescht or DAPI. The coverslips were washed and mounted onto microscope slides using FluorSave mounting reagent (Millipore, Darmstadt, Germany). Slides were imaged on a Leica SP5 confocal microscope.
(§2) Images were analyzed for fluorescence and puncta using ImageJ software using a non-biased, high-throughput macro. In brief, cells were selected using an expanded selection from the DAPI channel. The regions of interest were then masked, a watershed filter was applied to split adjacent cells into separate cells, and the regions of interest were applied to the 100 channel to measure fluorescence and puncta. High resolution confocal stacks were deconvolved with Hyugen's Deconvolution Software or AiryScan.
(§3) Using a standard fluorescence curve, the concentration within the puncta of 100 was estimated to be 4.66±0.05 μM. Based on puncta volume and a ratio of 1:1 for 100:Hsp90 (as each monomer of Hsp90 has a single ATP-binding site), the larger puncta are estimated to contain 2659±105 monomers of eHsp90. Accumulation of the puncta intracellularly is time-dependent (FIG. 3b). Formation of the puncta is eHsp90-dependent and not related to any physiochemical properties of the probes themselves. […] This diffusion may be a result of exchange with intracellular ATP or the degradation of the internalized eHsp90. Probe aggregates alone would not be expected to spontaneously dissipate without the addition of some form of organic solvent.

Hsp90 = assay: Incubation of highly purified Hsp90 with probe, aggregation by gel filtration or other chromatography; details: highly purified Hsp90, no live cell
non-malignant cells = assay: Puncta formation on non-malignant cells; assay type: cell-based
Protocol: as §3

MDA-MB-468 cells [4] = assay: 100 internalization assay in MDA-MB-468 cells; assay type: cell-based; details: dose and time series
Protocol: as §1, §2
To analyze the internalization of eHsp90 in transformed cells, the 4T1 cell model was utilized.

Structure (SMILES): Cc1nn(-c2ccc(C(N)=O)c(NCCCOCCOCCOCCOCCOCCCNCc3ccc(C(=C\C=C4\N(CCCCS(=O)(=O)O)c5ccccc5C4(C)C)/C=C/C4=[N+](CCCCS(=O)(=O)[O-])c5ccccc5C4(C)C)cc3)c2)c2c1C(=O)CC(C)(C)C2 [Compound 100, 4-(2-((1E,3Z)-3-(4-(21-((2-carbamoyl-5-(3,6,6-trimethyl-4-oxo-4,5,6,7-tetrahydro-1H-indazol-1-yl)phenyl)amino)-6,9,12,15,18-pentaoxa-2-azahenicosyl)phenyl)-5-((Z)-3,3-dimethyl-1-(4-sulfobutyl)indolin-2-ylidene)penta-1,3-dien-1-yl)-3,3-dimethyl-3H-indol-1-ium-1-yl)butane-1-sulfonate]
- distribution of probe uptake within flank tumor (MDA-MB-468 flank tumors): exclusively associated with live tumor tissue
- number of puncta detected in live imaging (eHsp90): significantly more puncta
- internalization of probe [1]: internalized to a higher extent in 4T1 cells
- internalization of 100 in MCF10A cells (MCF10A cells; benign cells compared with malignant breast cells): minimally internalize
- internalization of 100 upon induction of p110HER2 expression (MCF10A cells; doxycycline-induced p110HER2, 25 μM, 45 min): significant increase
- internalization of 100 upon overexpression of kinase-dead p110HER2 (MCF10A cells; kinase-dead p110HER2): nor did it promote internalization
- Abs. Max [2]: 644
- Em. Max [2]: 672
- intracellular accumulation of puncta (MDA-MB-468 cells [3]; 25 μM 100, increasing time points): time-dependent
- reversibility of puncta formation (MDA-MB-468 cells [3]; after drug removal): reversible within cells
- puncta formation when applied to cells (MDA-MB-468 cells [3]; tumor cells): striking punctate formations both on the cell surface and within the cell itself
- aggregation of purified Hsp90 on incubation with probe (Hsp90): does not cause the protein to spontaneously aggregate
- puncta formation on non-malignant cells (non-malignant cells): puncta do not form
- uptake of probe (MDA-MB-468 cells [4]): dose- and time-dependent
